Source: PubChem BioAssay AID624297 (National Center for Advancing Translational Sciences (NCATS), 2012)
About 6,200 (1.8%) of roughly 340,000 compounds were called active. The shares of active, inactive and inconclusive entries below differ from those in the screen. The call rests on the fitted dose curve; in most records, active means well fitted activation curve with a large enough effect; inconclusive means small, poorly fitted or top-dose-only effect; inactive means no such curve, though single readings can be large or run the other way. Potencies beside an inconclusive call are fits to weak or partial responses and may not hold up. Some structures have more than one record in an assay (separate samples or runs), and their calls can disagree.

Assay: A quantitative high throughput screen for small molecules that induce DNA re-replication in SW480 colon adenocarcinoma cells. Further: nearly all actives have a fitted effect of over 55% in size. On re-replication activation: % of control where 0% means no effect.
Settings: Hoechst DNA content imaging, 48 h; re-replication activation: at 46.1 µM (top of the series)
How it was run: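 Per well, 250 cells were exposed to pinned compound for 48 hr. Nuclear DNA was visualised with Hoechst (40 min, 37 C) and total object intensity recorded by fluorescence scanning.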
Potency means the concentration at half of the fitted maximal effect.

Compound | re-replication activation | Potency
NC(=O)CN1CC(O)CC1=O (centres undefined) | inactive: -1.97% | –
O=C(C[N+]12CCC(CC1)C(C(O)(c1ccccc1)c1ccccc1)C2)c1ccc(Br)cc1 (centres undefined) | inactive: -11.4% | –
O=C(CCC(=O)N1C[C@H]2C[C@@H](C1)c1cccc(=O)n1C2)NCc1ccc(F)cc1 | – | inconclusive: 0.206 µM [activator, single point]
CC(C)N1CCN(Cc2c[nH]c3ccccc23)CC1CCO (centres undefined) | inactive: 24.6% | –
CC(=O)C1C(=O)NC23CCCCC2C1c1ccccc1O3 (centres undefined) | – | inconclusive: 5.17 µM [activator, full curve, poor fit]
CC1=C(C(=O)Nc2ccccc2)SCCO1 | – | inconclusive: 1.64 µM [activator, single point]
Cc1cccc(-n2c(O)c(/C=C/C=Nc3ccccc3)c(=O)[nH]c2=O)c1 | – | inconclusive: 0.731 µM [activator, partial curve, poor fit]
Cc1ccc2c(c1)[C@H]1[C@H](CO2)[C@H](c2ccccc2)[C@]2(C)C(=O)N(CC3CCCO3)CC(=O)N12 (some centres undefined) | – | inconclusive: 16.4 µM [activator, single point]
CCOC(=O)c1c(-n2c(C)cc(C=C3C(=O)NC(=S)NC3=O)c2C)sc2c1CCCC2 | – | inconclusive: 29.1 µM [activator, single point]
c1ccc(CCc2ccc3n2Cc2cnnn2-c2ccccc2-3)cc1 | – | inconclusive: 13 µM [activator, partial curve]
CCn1c(O)c(C=Nc2ccc(S(N)(=O)=O)cc2)c(=O)[nH]c1=S | inactive: -73.5% | –
Cc1ccc(-n2c(O)c(C=NCc3ccco3)c(=O)[nH]c2=S)cc1C | – | inconclusive: 29.1 µM [activator, single point]
O=c1cc(-c2ccc(O)cc2)oc2c(C3O[C@H](CO)[C@@H](O)[C@H](O)[C@H]3O)c(O)cc(O)c12 (some centres undefined) | – | inconclusive: 0.1 µM [activator, full curve, poor fit]
Nc1ccccc1C(=O)OC1CSC1 | inactive: 0.267% | –
COc1ccccc1-n1c(/C=C/c2ccccn2)nc2ccccc2c1=O | – | inconclusive: 29.1 µM [activator, single point]
OC(CNCCc1c[nH]c2ccccc12)C(F)(F)F (centres undefined) | – | inconclusive: 6.31 µM [activator, partial curve, poor fit]
COc1ccc(C(=O)/C=C/c2cccs2)c(OC(=O)N2CCOCC2)c1 | – | inconclusive: 14.6 µM [activator, partial curve, poor fit]
C[C@]12CC[C@H]3[C@@H](CC[C@@]45O[C@@H]4C(=O)C(C#N)C[C@]35C)[C@@H]1CC[C@@H]2O (some centres undefined) | – | inconclusive: 23.7 µM [activator, partial curve, poor fit]
O=C(O)c1cc(Oc2ccc(C(F)(F)F)cc2Cl)ccc1[N+](=O)[O-] | inactive: -57.5% | –
c1ccc2c(N3CCNCC3)nsc2c1 | – | inconclusive: 20.6 µM [activator, single point]
CCOc1ccc(N2C(=O)/C(=C/c3ccco3)C(=O)NC2=S)cc1 | – | inconclusive: 4.61 µM [activator, single point]
Cc1cc(O)cc2c1O[C@@](C)(CCC[C@@H](C)CCC[C@@H](C)CCCC(C)C)CC2 | – | inconclusive: 31.6 µM [activator, single point]

In another format: results already given.
CC(C)N1CCN(Cc2c[nH]c3ccccc23)CC1CCO (centres undefined)
  re-replication activation: inactive: 24.6%
CC(=O)C1C(=O)NC23CCCCC2C1c1ccccc1O3 (centres undefined)
  Potency: inconclusive: 5.17 µM [activator, full curve, poor fit]
CC1=C(C(=O)Nc2ccccc2)SCCO1
  Potency: inconclusive: 1.64 µM [activator, single point]
Cc1cccc(-n2c(O)c(/C=C/C=Nc3ccccc3)c(=O)[nH]c2=O)c1
  Potency: inconclusive: 0.731 µM [activator, partial curve, poor fit]

Rewritten tab-delimited: 2 of the compounds above.
Compound	re-replication activation	Potency
CC(C)N1CCN(Cc2c[nH]c3ccccc23)CC1CCO (centres undefined)	inactive: 24.6%	–
c1ccc2c(N3CCNCC3)nsc2c1	–	inconclusive: 20.6 µM [activator, single point]

Remaining list, next part

Compound | re-replication activation | Potency
CCNC(=O)CCSc1nc2cc(Cl)ccc2o1 | – | inconclusive: 29.1 µM [activator, partial curve, poor fit]
C=CC[C@H](CC(=O)N(CCO)Cc1ccccc1)C(=O)NC[C@H](OC(=O)[C@@H](CC=C)CC(=O)OC(C)(C)C)c1ccccc1 | – | inconclusive: 16.4 µM [activator, single point]
COC(=O)c1nc(-c2ccc3c(n2)C(=O)C(N)=C(OC)C3=O)c(N)c(-c2ccc(OC)c(OC)c2O)c1C | – | inconclusive: 0.116 µM [activator, full curve, poor fit]
O=C1NC(=O)C(CCc2ccncc2)(CCc2ccncc2)C(=O)N1C1CCCCC1 | – | inconclusive: 2.31 µM [activator, single point]
CN(CCC#N)C(=O)Cn1nc(Cc2ccncc2)c2ccccc2c1=O | – | inconclusive: 5.17 µM [activator, partial curve, poor fit]
CCCCC(=O)N/N=C/c1c(O)n(CC)c(=S)n(CC)c1=O | – | inconclusive: 13 µM [activator, partial curve]
CCn1nc(/C=C/c2ccccc2)nc2c(=O)n(C)c(=O)nc1-2 | – | inconclusive: 2.91 µM [activator, partial curve, poor fit]
Cc1nc2ccc(Nc3nc4cc(S(=O)(=O)N5CCOCC5)ccc4o3)cc2s1 | – | active: 18.4 µM
C=CCNc1nnc(Sc2ncccc2[N+](=O)[O-])s1 | – | inconclusive: 29.1 µM [activator, single point]
CCCCn1c(O)c(C(CC)=Nc2ccc(OCC)cc2)c(=O)[nH]c1=O | inactive: 2.01% | –
CN1C[C@H](C(=O)N[C@]2(C)O[C@@]3(O)[C@@H]4CCCN4C(=O)[C@H](Cc4ccccc4)N3C2=O)CC2c3cccc4[nH]cc(c34)C[C@H]21 (some centres undefined) | – | active: 0.355 µM
CCc1ccc(CNCCc2ccccc2F)cc1 | – | inconclusive: 29.1 µM [activator, partial curve, poor fit]
O=C1NC(=O)N(c2ccccc2)C(=O)/C1=C/c1ccc(Sc2ccccc2)o1 | – | inconclusive: 35.5 µM [activator, single point]
Cc1ccc(C(=O)Nc2nc3ccccc3[nH]2)cc1 | – | inconclusive: 23.1 µM [activator, single point]
CCOc1cc2c(cc1OCC)-n1cccc1C(c1ccc(F)c(OC)c1)NC2 (centres undefined) | inactive: 0.506% | –
CCCCCOc1ccc(C)cc1CN(CCCl)CCCl | – | inconclusive: 0.58 µM [activator, full curve, poor fit]
CC1(C)C(=O)C=C[C@]2(C)[C@H]3CC[C@@]4(C)[C@H](c5ccoc5)OC(=O)[C@H]5O[C@]54[C@]3(C)[C@H](O)C[C@@H]12 | – | inconclusive: 29.1 µM [activator, single point]
COc1ccc(/C=C2/C(=O)NC(=O)N(c3ccc(C)c(C)c3)C2=O)cc1CN1C(=O)c2ccccc2C1=O | – | inconclusive: 29.1 µM [activator, partial curve, poor fit]
CCc1c(C)nc(N)nc1N1N=C1SC(C(C)=O)C(C)=O | – | inconclusive: 32.6 µM [activator, partial curve, poor fit]
CC(=O)OC1CC(OC2C(O)CC(OC3C(O)CC(OC4CCC5(C)C(CCC6C5CCC5(C)C(C7=CC(=O)OC7)CCC65O)C4)OC3C)OC2C)OC(C)C1OC1OC(CO)C(O)C(O)C1O (centres undefined) | – | active: 0.92 µM
COC(=O)C1=C(c2ccc(S(C)(=O)=O)cc2)C[C@@H]2CC[C@H]1N2C(=O)N1CCCC1 | inactive: 12.5% | –
CCCCCn1c(=O)c(C(=O)Nc2ncccc2C)c(O)c2ccccc21 | – | inconclusive: 20.6 µM [activator, single point]

Compound | re-replication activation | Potency
CC(N)Cc1c[nH]c2ccc(OCc3cccs3)cc12 (centres undefined) | – | inconclusive: 25.9 µM [activator, single point]
COc1ccc(-n2c(O)c(C=NCCN3CCN(C(C)=O)CC3)c(=O)[nH]c2=S)cc1 | inactive: -7.04% | –
COC(=O)C1=C(c2ccc(OC)c(OC)c2)C[C@@H]2CC[C@H]1N2C(=O)NCCO | – | inconclusive: 0.58 µM [activator, single point]
C=C1C(=O)[C@@]23C[C@H]4[C@@H]5[C@@]6(C)CCC[C@@]57[C@@H]2[C@@H](O)[C@@H]1C[C@H]3[C@H]7N4C6 | – | inconclusive: 5.17 µM [activator, full curve, poor fit]
COc1ccc(OC)c(-n2c(O)c(C=Nc3c(C)n(C)n(-c4ccccc4)c3=O)c(=O)[nH]c2=S)c1 | inactive: -28.3% | –
Oc1cccc[c]1[Hg][Cl] | – | inconclusive: 1.06 µM [activator, full curve]
O=C1CN=C(c2cccc(Br)c2)c2cc(Br)ccc2N1 | – | inconclusive: 18.4 µM [activator, single point]
CCCCCCn1c(=O)c(C(=O)Nc2c(C)n(C)n(-c3ccccc3)c2=O)c(O)c2ccccc21 | inactive: -7.8% | –
CCOc1cc(CNC(C)C(O)c2ccccc2)cc(Cl)c1OCC (centres undefined) | inactive: 3.05% | –
[S]=[Sb][S][Sb]=[S] | inactive: -1.79% | –
COc1ccc2[nH]c3c(c2c1)CCN=C3C | – | inconclusive: 8.91 µM [activator, single point]
CCN(CC)c1ccc(CNCCc2ccc(F)cc2)cc1 | – | inconclusive: 29.1 µM [activator, single point]
Cc1cccc(CN2CCN(Cc3ccc(Cl)cc3)CC2)c1 | – | inconclusive: 0.103 µM [activator, full curve, poor fit]
O=C(CC1CCCCC1)N1CCC(c2nc(-c3ccc(S(=O)(=O)N4CCCC4)cc3)no2)CC1 | – | inconclusive: 20.6 µM [activator, partial curve, poor fit]
COc1cc(/C=C/c2nc3ccccc3c(=O)n2-c2cccc(O)c2)ccc1O | – | inconclusive: 29.1 µM [activator, single point]
Cc1cc(N(CCCl)CCCl)ccc1C=Cc1ccncn1 | – | inconclusive: 16.4 µM [activator, partial curve]
O=c1c2ccccc2nc(/C=C/c2ccco2)n1-c1ccccc1O | – | active: 20.6 µM
C=C1C(=O)OC2CC3(C)OC3CCC(C)=CC(OC(C)=O)C12 (centres undefined) | inactive: 3.74% | –
COC(=O)C1=C(c2ccc3ccccc3c2)C[C@@H]2CC[C@H]1N2C(=O)NC1CC1 | inactive: 4.8% | –
CCCC(C)C1(CC)C(=O)NC(=S)NC1=O (centres undefined) | inactive: 1.05% | –
